In PubChem BioAssay AID504834 (National Center for Advancing Translational Sciences (NCATS), 2011):
In all, about 320,000 compounds went through this assay and about 22,000 (6.9%) were called active. Inconclusive results, whose numbers are uncertain, are shown with a selection of clear calls. Calls come from the whole dose curve; as a rule, active = well fitted inhibition curve with a large enough effect; inconclusive = small, poorly fitted or top-dose-only effect, or another doubt; inactive = no such curve, though single readings can be large or run the other way. A potency beside an inconclusive call is a rough fit, not a confirmed value.
% is set by controls: 0 for no effect and ±100 for the full control effect; potency is the fitted concentration of half-maximal effect.

Test: Primary qHTS for delayed death inhibitors of the malarial parasite plastid, 96 hour incubation
Conditions: P. falciparum luciferase reporter growth; series mostly up to 28.7 µM; activity change, negative = inhibition: at the top concentration
Method in brief: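 96 h incubation, 37 C, 5% CO2, of luciferase-reporter P. falciparum-infected RBCs (2% hematocrit, 0.05% parasitemia final) with test compounds; endpoint luminescence.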
In the case of `Cc1ccc(NC(=O)CN2C(=O)NC3(CCCCC3C)C2=O)cc1S(=O)(=O)N1CCCCC1` (centres undefined), the Potency is reported as inconclusive: 11.7 µM [inhibitor, partial curve, poor fit].
In the case of `CCN1CCc2c(sc(NC(=O)COc3ccccc3)c2C(=O)OC)C1`, the “activity change, negative = inhibition” value is reported as inactive: 0%.
With `C=CCOc1cccc(C2NC(=O)c3ccccc3O2)c1` (centres undefined) the Potency was inconclusive: 18.5 µM [inhibitor, single point].
With `CS(=O)(=O)NN1C(=O)c2ccccc2NC1c1ccccc1F` (centres undefined) the “activity change, negative = inhibition” value was inactive: 0.388%.
With `CCN1CCN(S(=O)(=O)c2cc(C(=O)O)ccc2Cl)CC1` the Potency was inconclusive: 1.04 µM [inhibitor, full curve].
In the case of `CC1CCN(C(CNS(=O)(=O)c2ccccc2)c2ccccc2)CC1` (centres undefined), the “activity change, negative = inhibition” value is reported as inactive: -21.5%.
With `C=CCn1cnc2c(c1=O)c1nc3ccccc3nc1n2/N=C/c1ccccn1` the Potency was active: 1.85 µM.
In the case of `CCOc1ccccc1N(CC(=O)NC1CCCCC1)C(=O)CCC(=O)Nc1cc(C)ccn1`, the Potency is reported as inconclusive: 13.1 µM [inhibitor, single point].
With `C#CCOCCOCCOCCNc1nc(N2CCOCC2)nc(N2CCN(C(=O)[C@H](C)n3cc(CCCN=C(N)N)nn3)CC2)n1` the “activity change, negative = inhibition” value was inactive: -23.1%.
For `O=C(OCC(=O)N(C1CCCCC1)C1CCCCC1)c1ccccc1O`, the Potency was inconclusive: 14.7 µM [inhibitor, single point].
In the case of `O=C(NCCOc1ccccc1F)c1cccc(S(=O)(=O)N2CCN(c3ccccc3)CC2)c1`, the Potency is reported as inconclusive: 10.4 µM [inhibitor, partial curve, poor fit].
For `CC1C/C(=N/NC(=O)c2ccc(CSc3nc4ccccc4[nH]3)cc2)CC(C)(C)C1` (centres undefined), the Potency was inconclusive: 4.15 µM [inhibitor, partial curve, poor fit].
With `Cc1ccc(COC(=O)c2cccc(S(=O)(=O)N3CCCCCC3)c2)cc1` the Potency was inconclusive: 18.5 µM [inhibitor, single point].
In the case of `COc1ccc(NC(=O)C2CCCN(S(=O)(=O)c3ccc(Cl)cc3)C2)cc1OC` (centres undefined), the Potency is reported as inconclusive: 18.5 µM [inhibitor, single point].
With `Fc1cccc(Cl)c1Cn1nnc2c(NCc3ccccn3)ncnc21` the Potency was inconclusive: 18.5 µM [inhibitor, single point].
With `Nc1ccn([C@H]2CC[C@@H](CO)O2)c(=O)n1` the “activity change, negative = inhibition” value was inactive: 26.1%.
In the case of `CCOC(=O)c1c(Nc2ccccc2)sc(/C=C2\C=Nc3ccccc32)c1O`, the Potency is reported as inconclusive: 0.0033 µM [inhibitor, full curve, poor fit].
With `CCCN(C(=O)Cn1c(C(F)(F)F)nc2ccccc21)C1CCS(=O)(=O)C1` (centres undefined) the “activity change, negative = inhibition” value was inactive: -15.5%.
In the case of `O=C(N/C(=C\c1cccc([N+](=O)[O-])c1)C(=O)N1CCOCC1)c1cccc(Br)c1`, the Potency is reported as inconclusive: 10.4 µM [inhibitor, single point].
In the case of `CN1CCN(c2nc(-c3ccccc3O)nc3ccccc23)CC1`, the Potency is reported as inconclusive: 9.28 µM [inhibitor, partial curve].
For `Fc1ccccc1N=C1Nc2cccc3cccc1c23`, the “activity change, negative = inhibition” value was inactive: 5.56%.
With `Cc1ccc(C)c(OCc2cc(C(=O)N3C[C@H]4C[C@@H](C3)c3cccc(=O)n3C4)no2)c1` the “activity change, negative = inhibition” value was inactive: 13.4%.
With `COc1ccc(CNc2ncc(-c3ccc(Cl)cc3)n2C)c(OC)c1OC` the Potency was active: 2.94 µM.
For `COc1ccc2cc(C(=O)NCc3ccco3)c(=Nc3ccc(C(=O)O)cc3)oc2c1`, the Potency was inconclusive: 16.5 µM [inhibitor, partial curve, poor fit].
In the case of `O=C(CNS(=O)(=O)c1cccc2nonc12)NCc1ccc(F)cc1`, the Potency is reported as inconclusive: 1.85 µM [inhibitor, full curve].
With `Cc1[nH]c2ccccc2c1N=Nc1ccccc1C(=O)O` the Potency was active: 10.4 µM.
In the case of `O=C(CS(=O)(=O)c1ccccc1)NCc1ccccc1`, the “activity change, negative = inhibition” value is reported as inactive: 15.2%.
With `COc1ccccc1CCC(=O)Nc1ccc2c(c1)CN(Cc1ccc(C)o1)CC2` the Potency was inconclusive: 18.5 µM [inhibitor, partial curve, poor fit].
For `Cc1[nH]c2ccccc2c1C(=O)CN1C(=O)C(=O)N(Cc2ccco2)C1=O`, the Potency was inconclusive: 18.5 µM [inhibitor, single point].
For `COc1ccc(/C=N/Nc2nccnc2Cl)c(OC)c1`, the “activity change, negative = inhibition” value was inactive: 7.71%.
In the case of `NN(CCO)C(=S)Nc1ccc(Cl)cc1`, the “activity change, negative = inhibition” value is reported as inactive: 4.09%.
In the case of `COc1ccccc1NC(=O)Cn1cnc2c(nnn2-c2ccc(C)cc2)c1=O`, the “activity change, negative = inhibition” value is reported as inactive: 18.5%.
In the case of `Cn1cc(C(=O)C(=O)N2CCN(c3ccccc3)CC2)c2ccccc21`, the Potency is reported as inconclusive: 13.1 µM [inhibitor, single point].
For `N#CCCn1cc(C(=O)Nc2ccc(C(=O)O)cc2)c(-c2ccc([N+](=O)[O-])cc2)n1`, the Potency was inconclusive: 0.185 µM [inhibitor, full curve].
For `Cc1nc(SCC(=O)c2ccc(F)c(F)c2)[nH]c(=O)c1Oc1ccc(F)cc1`, the Potency was inconclusive: 0.0657 µM [inhibitor, full curve, poor fit].
In the case of `CCOc1ccc(S(=O)(=O)N2CCN(C(=O)c3cc(S(=O)(=O)N4CCOCC4)ccc3C)CC2)cc1`, the Potency is reported as active: 3.7 µM.
For `O=C(NN1CCOCC1)c1cc(-c2ccc(Br)cc2)nc2ccccc12`, the “activity change, negative = inhibition” value was inactive: 34.7%.
With `Cc1ccc(NC(=O)c2ccc(NCCCN3CCC(C)CC3)c([N+](=O)[O-])c2)c(C)c1` the Potency was inconclusive: 2.62 µM [inhibitor, full curve].
For `CCCNC(=O)c1cc(-c2ccc(Br)cc2)on1`, the Potency was inconclusive: 2.33 µM [inhibitor, full curve].
For `CCOC(=O)n1c(SCC(N)=O)nc2ccccc21`, the Potency was inconclusive: 0.586 µM [inhibitor, full curve, poor fit].
With `Cc1ccc(C)c(S(=O)(=O)NCc2ccncc2)c1` the Potency was inconclusive: 0.0294 µM [inhibitor, full curve, poor fit].
With `COc1ccc(/C(N)=N/OC(=O)CN(C)S(=O)(=O)c2ccc(C)cc2)cc1` the Potency was inconclusive: 4.65 µM [inhibitor, partial curve, poor fit].
In the case of `COCCn1c(SCC(=O)NCc2ccccc2)nnc1-c1ccco1`, the Potency is reported as inconclusive: 18.5 µM [inhibitor, single point].
For `CCC(CC)c1nnc(NC(=O)c2cccc(S(=O)(=O)N3CCc4ccccc43)c2)s1`, the Potency was inconclusive: 18.5 µM [inhibitor, single point].
